Measurements as given in publication PMC6509496, “Crystal structure of the TreS:Pep2 complex, initiating α-glucan synthesis in the GlgE pathway of mycobacteria” (The Journal of Biological Chemistry, 2019).
No constants are given. Whether binding was seen depends on the method and setting. Some entries that bind do so weakly or less than the wild type.

Protein sequences, listed by entry. Tags and fused reporters are not part of them. Lines headed by an entry give the natural chain unless they say otherwise; changes in a name come on top.
UniProt A0R6E0: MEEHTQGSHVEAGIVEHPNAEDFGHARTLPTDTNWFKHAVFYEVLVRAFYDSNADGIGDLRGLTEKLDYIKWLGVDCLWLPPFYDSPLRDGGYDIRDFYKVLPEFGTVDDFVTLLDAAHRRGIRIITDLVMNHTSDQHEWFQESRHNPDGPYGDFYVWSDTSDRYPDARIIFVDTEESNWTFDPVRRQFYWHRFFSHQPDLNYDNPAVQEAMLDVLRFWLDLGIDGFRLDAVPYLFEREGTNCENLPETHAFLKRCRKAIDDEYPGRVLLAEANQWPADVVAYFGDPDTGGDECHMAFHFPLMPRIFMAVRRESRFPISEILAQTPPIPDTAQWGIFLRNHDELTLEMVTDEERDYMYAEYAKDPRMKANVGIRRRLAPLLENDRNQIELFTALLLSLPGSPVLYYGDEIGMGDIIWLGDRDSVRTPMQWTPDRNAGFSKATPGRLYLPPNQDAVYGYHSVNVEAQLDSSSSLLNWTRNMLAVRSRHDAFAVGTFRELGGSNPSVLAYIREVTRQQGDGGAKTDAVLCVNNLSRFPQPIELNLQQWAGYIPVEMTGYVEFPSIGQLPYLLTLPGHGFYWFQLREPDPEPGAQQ
UniProt A0R6D9: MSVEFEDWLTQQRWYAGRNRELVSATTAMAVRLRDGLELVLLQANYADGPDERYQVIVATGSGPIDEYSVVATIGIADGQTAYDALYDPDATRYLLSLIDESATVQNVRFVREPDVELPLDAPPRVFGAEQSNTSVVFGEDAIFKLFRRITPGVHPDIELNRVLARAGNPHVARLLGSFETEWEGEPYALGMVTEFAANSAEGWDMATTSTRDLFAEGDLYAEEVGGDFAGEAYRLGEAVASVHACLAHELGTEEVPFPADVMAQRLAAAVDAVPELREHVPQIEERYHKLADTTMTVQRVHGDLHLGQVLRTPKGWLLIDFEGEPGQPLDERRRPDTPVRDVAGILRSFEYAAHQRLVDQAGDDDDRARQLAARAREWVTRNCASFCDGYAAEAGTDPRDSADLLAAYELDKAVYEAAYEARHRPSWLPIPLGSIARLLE

What was measured:
[1] = molecular target: Mycobacterium smegmatis trehalose synthase (TreS) (M. smegmatis) (UniProt A0R6E0); experiment: SEC; Sephacryl S-300HR (320 ml), proteins alone or equimolar mixtures at 30 μM each; 50 mM sodium phosphate pH 6.0-9.0, 300 mM NaCl, 10% glycerol (Pep2-Δ70 with TreS at pH 6.5); both purified
[2] = molecular target: Mycobacterium smegmatis trehalose synthase (TreS) (M. smegmatis) (UniProt A0R6E0); experiment: crystal structure; vapor diffusion of mixtures of M. smegmatis TreS and Pep2 at molar ratios 1:1 to 1:2; 9-10% PEG 8000, 4% glycerol, 200 mM MgCl2, 0.1 M Tris-HCl pH 6.7-7.0; 3.6 Å; both purified

| Substance | binding [1] | binding [2] |
| --- | --- | --- |
| Mycobacterium smegmatis maltokinase (Pep2) (from UniProt A0R6D9 1-441) (enzyme) | binds | binds |
| N-terminally truncated M. smegmatis Pep2 (Pep2-Δ70) (from UniProt A0R6D9 71-441) (domain or fragment) | binds |  |
